Reference: the supplement of paper PMC8728848
Some of the results follow.

Experiments:
Test in all cases: glycan array binding signal (z-score within array); higher = stronger binding
Details in all cases: glycan notation: IUPAC condensed, linker removed
Neu5Ac(a2-3)Gal = target: Neu5Ac(a2-3)Gal
In short: (§1)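 Glycan array data were curated from 3228 arrays in the Consortium for Functional Glycomics database and kept only where the protein sequence was available. Glycan names were converted to IUPAC-condensed notation, and columns mapping to the same glycan were averaged. The binding signal is a within-array Z-score, averaged across arrays of the same protein sequence at different concentrations or buffers and across linkers. Negative Z-scores can be read as non-binding.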

[1] = target: Neu5Ac(a2-3)Gal(b1-3)GalNAc
In short: as §1

[2] = target: Neu5Ac(a2-3)Gal(b1-3)GalNAc(b1-3)Gal(a1-4)Gal(b1-4)Glc
In short: as §1

[3] = target: Neu5Ac(a2-3)Gal(b1-3)GalNAc(b1-4)[Neu5Ac(a2-3)]Gal(b1-4)Glc
In short: as §1

[4] = target: Neu5Ac(a2-3)Gal(b1-3)GalNAc(b1-4)[Neu5Ac(a2-8)Neu5Ac(a2-3)]Gal(b1-4)Glc
In short: as §1

[5] = target: Neu5Ac(a2-3)Gal(b1-3)GalNAc6S
In short: as §1

[6] = target: Neu5Ac(a2-3)Gal(b1-3)GlcNAc
In short: as §1

[7] = target: Neu5Ac(a2-3)Gal(b1-3)GlcNAc(b1-2)Man
In short: as §1

[8] = target: Neu5Ac(a2-3)Gal(b1-3)GlcNAc(b1-2)Man(a1-3)[GlcNAc(b1-4)][Neu5Ac(a2-3)Gal(b1-3)GlcNAc(b1-2)Man(a1-6)]Man(b1-4)GlcNAc(b1-4)GlcNAc
In short: as §1

[9] = target: Neu5Ac(a2-3)Gal(b1-3)GlcNAc(b1-2)Man(a1-3)[Neu5Ac(a2-3)Gal(b1-3)GlcNAc(b1-2)Man(a1-6)]Man(b1-4)GlcNAc(b1-4)GlcNAc
In short: as §1

[10] = target: Neu5Ac(a2-3)Gal(b1-3)GlcNAc(b1-2)[Neu5Ac(a2-3)Gal(b1-3)GlcNAc(b1-4)]Man(a1-6)[Neu5Ac(a2-3)Gal(b1-3)GlcNAc(b1-2)Man(a1-3)]Man(b1-4)GlcNAc(b1-4)GlcNAc
In short: as §1

[11] = target: Neu5Ac(a2-3)Gal(b1-3)GlcNAc(b1-3)Gal(b1-3)GlcNAc
In short: as §1

[12] = target: Neu5Ac(a2-3)Gal(b1-3)GlcNAc(b1-3)Gal(b1-4)GlcNAc
In short: as §1

[13] = target: Neu5Ac(a2-3)Gal(b1-3)GlcNAc(b1-3)GalNAc
In short: as §1

[14] = target: Neu5Ac(a2-3)Gal(b1-3)GlcNAc(b1-4)Gal(b1-4)Glc
In short: as §1

[15] = target: Neu5Ac(a2-3)Gal(b1-3)GlcNAc(b1-6)GalNAc
In short: as §1

[16] = target: Neu5Ac(a2-3)Gal(b1-3)GlcNAc6S
In short: as §1

[17] = target: Neu5Ac(a2-3)Gal(b1-3)[Fuc(a1-4)]GlcNAc
In short: as §1

[18] = target: Neu5Ac(a2-3)Gal(b1-3)[Fuc(a1-4)]GlcNAc(b1-3)Gal(b1-3)[Fuc(a1-4)]GlcNAc
In short: as §1

[19] = target: Neu5Ac(a2-3)Gal(b1-3)[Fuc(a1-4)]GlcNAc(b1-3)Gal(b1-4)[Fuc(a1-3)]GlcNAc
In short: as §1

[20] = target: Neu5Ac(a2-3)Gal(b1-3)[GlcNAc(b1-6)]GalNAc
In short: as §1

[21] = target: Neu5Ac(a2-3)Gal(b1-3)[Neu5Ac(a2-6)]GalNAc
In short: as §1

[22] = target: Neu5Ac(a2-3)Gal(b1-3)[Neu5Ac(a2-6)]GlcNAc(b1-3)[Fuc(a1-3)[Gal(b1-4)]GlcNAc(b1-6)]Gal(b1-4)Glc
In short: as §1

[23] = target: Neu5Ac(a2-3)Gal(b1-3)]Neu5Ac(a2-3)Gal(b1-4)]GlcNAc
In short: as §1

Neu5Ac(a2-3)Gal(b1-4)Glc = target: Neu5Ac(a2-3)Gal(b1-4)Glc
In short: as §1

[24] = target: Neu5Ac(a2-3)Gal(b1-4)GlcNAc
In short: as §1

[25] = target: Neu5Ac(a2-3)Gal(b1-4)GlcNAc(b1-2)Man
In short: as §1

[26] = target: Neu5Ac(a2-3)Gal(b1-4)GlcNAc(b1-2)Man(a1-3)[GlcNAc(b1-4)][Neu5Ac(a2-3)Gal(b1-4)GlcNAc(b1-2)Man(a1-6)]Man(b1-4)GlcNAc(b1-4)GlcNAc
In short: as §1

[27] = target: Neu5Ac(a2-3)Gal(b1-4)GlcNAc(b1-2)Man(a1-3)[Neu5Ac(a2-3)Gal(b1-4)GlcNAc(b1-2)Man(a1-6)]Man(b1-4)GlcNAc(b1-4)GlcNAc
In short: as §1

[28] = target: Neu5Ac(a2-3)Gal(b1-4)GlcNAc(b1-2)Man(a1-3)[Neu5Ac(a2-3)Gal(b1-4)GlcNAc(b1-2)Man(a1-6)]Man(b1-4)GlcNAc(b1-4)[Fuc(a1-6)]GlcNAc
In short: as §1

[29] = target: Neu5Ac(a2-3)Gal(b1-4)GlcNAc(b1-2)Man(a1-3)[Neu5Ac(a2-6)Gal(b1-4)GlcNAc(b1-2)Man(a1-6)]Man(b1-4)GlcNAc(b1-4)GlcNAc
In short: as §1

[30] = target: Neu5Ac(a2-3)Gal(b1-4)GlcNAc(b1-2)[Neu5Ac(a2-3)Gal(b1-4)GlcNAc(b1-4)]Man(a1-3)[GlcNAc(b1-4)][Neu5Ac(a2-3)Gal(b1-4)GlcNAc(b1-2)[Neu5Ac(a2-3)Gal(b1-4)GlcNAc(b1-6)]Man(a1-6)]Man(b1-4)GlcNAc(b1-4)GlcNAc
In short: as §1

[31] = target: Neu5Ac(a2-3)Gal(b1-4)GlcNAc(b1-2)[Neu5Ac(a2-3)Gal(b1-4)GlcNAc(b1-4)]Man(a1-3)[GlcNAc(b1-4)][Neu5Ac(a2-3)Gal(b1-4)GlcNAc(b1-4)Man(a1-6)]Man(b1-4)GlcNAc(b1-4)GlcNAc
In short: as §1

[32] = target: Neu5Ac(a2-3)Gal(b1-4)GlcNAc(b1-2)[Neu5Ac(a2-3)Gal(b1-4)GlcNAc(b1-6)]Man(a1-6)[Neu5Ac(a2-3)Gal(b1-4)GlcNAc(b1-2)Man(a1-3)][GlcNAc(b1-4)]Man(b1-4)GlcNAc(b1-4)GlcNAc
In short: as §1

[33] = target: Neu5Ac(a2-3)Gal(b1-4)GlcNAc(b1-3)Gal
In short: as §1

[34] = target: Neu5Ac(a2-3)Gal(b1-4)GlcNAc(b1-3)Gal(b1-3)GlcNAc
In short: as §1

[35] = target: Neu5Ac(a2-3)Gal(b1-4)GlcNAc(b1-3)Gal(b1-4)GlcNAc
In short: as §1

B1: SabA (Helicobacter pylori) (protein)
chain: MGSSHHHHHHSSGLVPRGSHMENLYFQGEDNGFFVSAGYQIGEAVQMVKNTGELKNLNEKYEQLSQYLNQVASLKQSIQNANNIELVNSSLNYLKSFTNNNYNSTTQSPIFNAVQAVITSVLGFWSLYAGNYFTFFVGKKVGDSGQPASVQGNPPFKTIIENCSGIENCAMDQTTYDKMKKLAEDLQAAQTNSATKGNNLCALSGCAATDSTSNPPNSTVSNALNLAQQLMDLIANTKTAMMWKNIVISGVSNTSGAITSTNYPTQYAVFNNIKAMIPILQQAVTLSQSNHTLSASLQAQATGSQTNPKFAKDIYTFAQNQKQVISYAQDIFNLFNSIPAEQYKYLEKAYLKIPNAGSTPTNPYRQVVNLNQEVQTIKNNVSYYGNRVDAALSVARDVYNLKSNQAEIVTAYNDAKTLSEEISKLPHNQVNTKDIVTLPYDKNAPAAGQSNYQINPEQQSNLNQALAAMSNNPFKKVGMISSQNNNGA
- glycan array binding signal (z-score) (Neu5Ac(a2-3)Gal): -0.478
- glycan array binding signal (z-score) [1]: 0.965
- glycan array binding signal (z-score) [2]: 0.16
- glycan array binding signal (z-score) [3]: 0.887
- glycan array binding signal (z-score) [4]: -0.312
- glycan array binding signal (z-score) [5]: -0.159
- glycan array binding signal (z-score) [6]: -0.231
- glycan array binding signal (z-score) [7]: -0.613
- glycan array binding signal (z-score) [8]: -0.379
- glycan array binding signal (z-score) [9]: 1.79
- glycan array binding signal (z-score) [10]: 0.359
- glycan array binding signal (z-score) [11]: -0.941
- glycan array binding signal (z-score) [12]: -0.789
- glycan array binding signal (z-score) [13]: -0.131
- glycan array binding signal (z-score) [14]: -0.865
- glycan array binding signal (z-score) [15]: -0.507
- glycan array binding signal (z-score) [16]: -0.559
- glycan array binding signal (z-score) [17]: -0.968
- glycan array binding signal (z-score) [18]: 0.27
- glycan array binding signal (z-score) [19]: -0.152
- glycan array binding signal (z-score) [20]: -0.888
- glycan array binding signal (z-score) [21]: -0.285
- glycan array binding signal (z-score) [22]: -0.626
- glycan array binding signal (z-score) [23]: 0.162
- glycan array binding signal (z-score) (Neu5Ac(a2-3)Gal(b1-4)Glc): 2.88
- glycan array binding signal (z-score) [24]: 0.046
- glycan array binding signal (z-score) [25]: 1.52
- glycan array binding signal (z-score) [26]: -0.359
- glycan array binding signal (z-score) [27]: 0.218
- glycan array binding signal (z-score) [28]: -0.235
- glycan array binding signal (z-score) [29]: -0.357
- glycan array binding signal (z-score) [30]: 0.219
- glycan array binding signal (z-score) [31]: -0.642
- glycan array binding signal (z-score) [32]: -0.617
- glycan array binding signal (z-score) [33]: -0.41
- glycan array binding signal (z-score) [34]: -0.735
- glycan array binding signal (z-score) [35]: -0.762
